# Measurements: publication PMC6521040
# Protein sequences, listed by entry. Tags and fused reporters are not part of them.
# UniProt P0A9A6: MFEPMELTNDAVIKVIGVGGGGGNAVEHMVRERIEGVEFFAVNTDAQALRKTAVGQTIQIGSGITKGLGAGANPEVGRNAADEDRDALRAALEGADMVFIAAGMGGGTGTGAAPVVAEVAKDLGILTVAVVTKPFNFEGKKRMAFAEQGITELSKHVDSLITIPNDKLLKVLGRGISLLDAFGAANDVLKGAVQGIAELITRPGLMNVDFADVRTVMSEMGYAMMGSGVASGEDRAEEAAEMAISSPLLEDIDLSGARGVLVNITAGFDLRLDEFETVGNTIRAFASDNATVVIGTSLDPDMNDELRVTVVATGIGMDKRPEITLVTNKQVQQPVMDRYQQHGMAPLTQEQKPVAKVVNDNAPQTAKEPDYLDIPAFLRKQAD
# Results are given in words; binding and its absence hold for the method and conditions named. Some binding calls cover weakened binding; strength is not graded here.
# Target: T1, CbtA (Ec), CbtA toxin from E. coli strain BW25113 (E. coli strain BW25113) (UniProt P64524)
# T1 sequence: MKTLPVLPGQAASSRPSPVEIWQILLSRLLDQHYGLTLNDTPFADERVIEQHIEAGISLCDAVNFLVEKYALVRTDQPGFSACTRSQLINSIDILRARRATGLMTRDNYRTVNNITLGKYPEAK
# Test: two-hybrid; GAL4 DNA binding domain bait and activation domain prey fusions co-transformed into S. cerevisiae strain Y2H gold; growth on SD/-Leu/-Trp and SD/-Leu/-Trp/-His plates, 30 °C, 3 days
substance,measurement,value
"FtsZ (Ec), cytoskeletal protein FtsZ from E. coli strain BW25113 (from UniProt P0A9A6 1-383)",binding,binds
